Source: patent US20110059504A1
Numbering of substitutions follows the chain as printed. Numbers in names are those of the source. No constants are given. Whether binding was seen depends on the method and setting. Some results given as binding are weak or reduced against the parent protein; the word gives no strength.

Protein sequences, listed by entry. Tags and fused reporters are not part of them. Residues count along the entry.
UniProt P01138, residues 122-241: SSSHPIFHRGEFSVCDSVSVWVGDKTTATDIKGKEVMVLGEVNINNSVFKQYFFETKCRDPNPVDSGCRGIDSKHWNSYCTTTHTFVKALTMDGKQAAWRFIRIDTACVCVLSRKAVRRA

T1: human myostatin (human) (UniProt O14793)
T1 sequence (biotinylated in selections and radioactive assays (site not stated), looked up): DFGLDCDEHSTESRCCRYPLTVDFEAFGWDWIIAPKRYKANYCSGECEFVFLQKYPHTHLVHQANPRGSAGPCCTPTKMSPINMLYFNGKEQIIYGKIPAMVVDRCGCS

B1: M17, E. coli-produced (designed binder)
chain: MTIPEIIIKVRGTQVVGSDMTVIVEFTNPFKETLRSVWVHLDGPGVTRPMKKMFREIPPKTTVQWEEVVRPWVSGHRKLIASMRTQYLIHLYGELDVQIQRRHHHHHH
B2: M29, E. coli-produced (designed binder)
chain: MTIPEIIIKVRGTQVVGSDMTVIVEFTNPFKETLRSVWVHLDGPGVTRPMKKMFREIPPKTTVQWEEVVRPWVSGHRKLIARCSLSPWHVYGELDVQIQRRHHHHHH
B3: M1-1, E. coli-produced (designed binder)
chain: MTIPEIIIKVRGTQVVGSDMTVIVEFTNPLKETLRNVWVHLDGPGVTRPMKKMFPAIPMNHKVQWEEVVRPWVSGHRKLIASMPQLFHIHVYGELDVQIQRRHHHHHH
B4: 39908-H10 (designed binder)
chain: MTIPEIIIKVRGTQVVGSDMTVIVEFTNPFKETLRSVWVHLDGPGVTRPMKKMFREIPPKTTVQWEEVVRPWVSGHRKLIASMPSLLHLHVYGELDVQIQRRDYKDDDDK
B5: 39908-G12 (designed binder)
chain: B4 chain with R55S, P58R, K60N, T61S
B6: 39633-D2 (designed binder)
chain: B4 chain with P29L, F30M, S36N, R55S, P58R, K60N, T61S
B7: 39908-G4 (designed binder)
chain: B4 chain with T27S, S36N, R55S, P58R, K60N, T61S
B8: 39633-C1 (designed binder)
chain: B4 chain with P84R, S85T, L86Q, L87Y, H88L, L89I, V91L
B9: 39633-G5 (designed binder)
chain: MTIPEIIIKVRGTQVVGSDMTVIVEFTNPFKETLRSVWVHLDGPGVTRPMKKMFSEIRPNSTVQWEEVVRPWVSGHRKLIASMRTQYLIHLYGELDVQIQRRDYKDDDDK
B10: 39633-G1 (designed binder)
chain: B9 chain with T27S, S36N, S55R, R58P, N60K, S61T
B11: 39633-B3 (designed binder)
chain: B9 chain with F30L, K31S, E32Q, R35S, S36A, S55R, R58P, N60K, S61T
B12: 39885-A1 (designed binder)
chain: MTIPEIIIKVRGTQVVGSDMTVIVEFTNPLKETLRNVWVHLDGPGVTRPMKKMFPAIPMNHKVQWEEVVRPWVSGHRKLIASMPQLFHIHVYGELDVQIQRRDYKDDDDK
B13: 39973-C10 (designed binder)
chain: B12 chain with A56T, P58S, M59R, N60F, H61K, K62R, F87Q, I89L
B14: 39973-F10 (designed binder)
chain: B12 chain with P55A, A56T, M59P, N60Y, H61L, K62P, F87I, I89L
B15: 39885-C11 (designed binder)
chain: B12 chain with P84I, Q85N, L86Y, H88Y, I89K
B16: 61363-C12 (G45E) (designed binder)
chain: MTIPEIIIKVRGTQVVGSDMTVIVEFTNPLEENLYNVWVHLDGPEVTRPMKKMFYQISTNIPVQWEEVVRPWVSGHRKLIASMGAHTKDHVYGELDVQIQRRDYKDDDDK
B17: 61362-F2 (designed binder)
chain: MTIPEIIIKVRGTQVVGSDMTVIVEFINTSNETLPSVWVHLDGPGVTRPMKKMFPEIPPNSSVQWEAWVSGHRKLIASMIRDSSRHVYGELDVQIQRRDYKDDDDK
B18: 61363-H1 (V15A) (designed binder)
chain: MTIPEIIIKVRGTQAVGSDMTVIVEFTNPLKETLYNVWVHLDGPGVTRPMKKMFWEIRTNHPVQWEEVVRPWVSGHRKLIASMSSNSRDHVYGELDVQIQRRDYKDDDDK
B19: 61362-C6 (designed binder)
chain: MTIPEIIIKVRGTQVVGSDMTVIVEFTNPLNEPLLFVWVHLDGPGVTRPMKKMFRIISPHATVQWEEVVRPWVSGHRKLIASMSIGFQAHVYGELDVQIQRRDYKDDDDK
B20: 39633-D6 (designed binder)
chain: MTIPEIIIKVRGTQVVGSDMTVIVEFTNPFKETLRNVWVHLDGPGVTRPMKKMFCEIRPNSIVQWEEVVRPWVSGHRKLIARCSLSPWHVYGELDVQIQRRDYKDDDDK
B21: 39908-E5 (designed binder)
chain: B20 chain with T27S, C55S, I62T
B22: 39908-D2 (designed binder)
chain: B20 chain with N36S, C55R, R58P, N60K, S61T, I62T
B23: 39908-B2 (designed binder)
chain: B20 chain with N36S, C55R, R58P, N60K, S61T, I62T, S84Q, S86L
B24: 39633-G6 (designed binder)
chain: B20 chain with N36S, C55R, R58P, N60K, S61T, I62T, R82S, C83M, S84T, S86R
B25: 39908-E1 (designed binder)
chain: MTIPEIIIKVRGTQVVGSDMTVIVEFTNLWKEALRNVWMHLDGPGVTRPMKKMFREIATMSTVQWEEVVRPWVSGHRKLIASMTLRPWHVYGELDVQIQRRDYKDDDDK

target: T1, human myostatin (human); assay: radioactive equilibrium binding, competitor at 500 nM

binding, binds:
B1
B2
B3

target: T1, human myostatin (human); assay: radioactive equilibrium binding assay: 35S-labelled in vitro protein, biotinylated myostatin 0-100 nM, capture on M-280 beads [panel Group M2-A50]

binding, binds:
B4
B5
B6
B7

target: T1, human myostatin (human); assay: radioactive equilibrium binding assay: 35S-labelled in vitro protein, biotinylated myostatin 0-100 nM, capture on M-280 beads [panel Group M1-A50]

binding, binds:
B8
B9
B10
B11

target: T1, human myostatin (human); assay: competition in radioactive equilibrium binding assay: labelled in vitro binder 0.1 pmol, myostatin 2 pmol, E. coli-produced protein 50 pmol

binding, binds:
B1
B2
B3

target: T1, human myostatin (human); assay: radioactive equilibrium binding assay: 35S-labelled in vitro protein, biotinylated myostatin 0-100 nM, capture on M-280 beads [panel Groups M1,2,3-A]

binding, binds:
B12
B13
B14
B15

target: human β-NGF (human) (UniProt P01138); assay: radioactive equilibrium binding assay: 35S-labelled in vitro protein, biotinylated β-NGF 0-50 nM, capture on M-280 beads

binding, binds:
B16
B17
B18
B19

target: T1, human myostatin (human); assay: radioactive equilibrium binding assay: 35S-labelled in vitro protein, biotinylated myostatin 0-100 nM, capture on M-280 beads [panel Group M3-A50]

binding, binds:
B20
B21
B22
B23
B24
B25
